Measurements published in EP3061768A1 (dated 2016).
These are yes or no findings as the source states them, for the method shown. Some binding calls cover weakened binding; strength is not graded here. Where a sequence is shown, tags or fusion partners need not be part of it.

Protein sequences, listed by entry. Tags and fused reporters are not part of them. Residues count along the entry.
UniProt P01584, residues 117-269: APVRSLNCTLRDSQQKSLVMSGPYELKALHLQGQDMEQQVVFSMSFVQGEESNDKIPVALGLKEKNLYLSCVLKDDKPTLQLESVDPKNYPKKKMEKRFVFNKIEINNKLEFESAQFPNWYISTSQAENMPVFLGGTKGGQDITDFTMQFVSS

Experiments:
human IL-1 Beta (human) [1] = biological target: human IL-1 Beta (human) (UniProt P01584); test: phage ELISA: biotinylated IL-1 Beta captured on neutravidin, anti-M13-HRP
human IL-1 Beta (human) [2] = biological target: human IL-1 Beta (human) (UniProt P01584); test: ELISA: Fab captured on anti-myc plate, biotinylated human IL-1 Beta, streptavidin-HRP

B1: safe variant 1F2 gene3-Fab fusion on phage (Fab, V domains shown)
VH: EVQLLESGGGLVQPGGSLRLSCAASGFTFSTYAMSWVRQAPGKGPEWVSGINTGGGSTGYADSVKGRFTISRDNSKNTLYLQMNSLRPEDTAVYYCAKDWMATTPWGQGTQVTVSS
VL: QTVVTQEPSFSVSPGGTVTLTCGLSSGSVTTNNYPGWFQQTPGQAPRTLIYNTNNRHSGVPSRFSGSILGNKAALTITGAQADDESDYYCALYMSSGSNNAVFGGGTKLTVLG
notes: The text says 'partially humanized V lambda fused to human C lambda and CH1'; the result sentence speaks of back mutations in both VL and VH, so the safe VH is used; also called safe 1F2; partially humanized 1F2
binding (human IL-1 Beta (human) [1]): binds

B2: hum 1F2 gene3-Fab fusion on phage (Fab, V domains shown)
VH: EVQLLESGGGLVQPGGSLRLSCAASGFTFSTYAMSWVRQAPGKGLEWVSGINTGGGSTGYADSVKGRFTISRDNSKNTLYLQMNSLRAEDTAVYYCAKDWMATTPWGQGTLVTVSS
VL: QTVVTQEPSFSVSPGGTVTLTCGLSSGSVTTNNYPGWYQQTPGQAPRTLIYNTNNRSSGVPDRFSGSILGNKAALTITGAQADDESDYYCALYMSSGSNNAVFGGGTKLTVLG
notes: also called fully humanized 1F2
binding (human IL-1 Beta (human) [1]): binds

B3: chimeric 1E2 Fab (llama V lambda and VH of 1E2 fused to human C lambda and CH1) (Fab, V domains shown)
VH: EVQLVESGGGLVQPGGSLRLSCTASGFTFSNYWMYWVRQAPGKGLEWVSAINAAGSTYYADSVKGRFTISRDNAKNTLYLQMNSLQSEDTALYYCANLPRWGQGTQVTVSS
VL: QTVVTQEPSLSVSPGGTVTLTCGLSSGSVTSGNYPGWYQQKPGQAPRTLIYNTNSRYSGVPNRFSGSISGNKAALTITGAQPEDEADYYCAVYIGSSSYPVVFGGGTHLTVLG
binding (human IL-1 Beta (human) [2]): binds

B4: Fab 1E2 wt V lambda / hum VH (Fab, V domains shown)
VH: EVQLVESGGGLVQPGGSLRLSCAASGFTFSNYWMYWVRQAPGKGLEWVSAINAAGSTYYADSVKGRFTISRDNSKNTLYLQMNSLRAEDTAVYYCANLPRWGQGTLVTVSS
VL: QTVVTQEPSLSVSPGGTVTLTCGLSSGSVTSGNYPGWYQQKPGQAPRTLIYNTNSRYSGVPNRFSGSISGNKAALTITGAQPEDEADYYCAVYIGSSSYPVVFGGGTHLTVLG
binding (human IL-1 Beta (human) [2]): binds

B5: Fab 1E2 wt V lambda / safe VH (Fab, V domains shown)
VH: EVQLVESGGGLVQPGGSLRLSCAASGFTFSNYWMYWVRQAPGKGLEWVSAINAAGSTYYADSVKGRFTISRDNSKNTLYLQMNSLQSEDTAVYYCANLPRWGQGTQVTVSS
VL: QTVVTQEPSLSVSPGGTVTLTCGLSSGSVTSGNYPGWYQQKPGQAPRTLIYNTNSRYSGVPNRFSGSISGNKAALTITGAQPEDEADYYCAVYIGSSSYPVVFGGGTHLTVLG
binding (human IL-1 Beta (human) [2]): binds

B6: wild type llama 1E2 Fab (Fab, V domains shown)
VH: EVQLVESGGGLVQPGGSLRLSCTASGFTFSNYWMYWVRQAPGKGLEWVSAINAAGSTYYADSVKGRFTISRDNAKNTLYLQMNSLQSEDTALYYCANLPRWGQGTQVTVSS
VL: QTVVTQEPSLSVSPGGTVTLTCGLSSGSVTSGNYPGWYQQKPGQAPRTLIYNTNSRYSGVPNRFSGSISGNKAALTITGAQPEDEADYYCAVYIGSSSYPVVFGGGTHLTVLG
binding (human IL-1 Beta (human) [2]): binds
